The source of these data is the supplement of paper PMC12889115.

The other results are listed elsewhere or left out. Values are raw readings; no control value is given beside them.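 Primary screen: polymyxin B was added at a level permeabilizing Salmonella outer membranes while sparing inner membranes. DMSO wells, both with and without polymyxin B, established maximum growth. Plate-to-plate variation meant each plate was ranked on its own, and the lowest-OD600 compounds were selected as hits.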

The assay deals with Salmonella enterica serovar Typhimurium SL1344. Kind of assay: bacterial growth OD600 after 18 h with compound and polymyxin B; higher = more bacterial growth (less inhibition). The settings on record: 50 µM, Mueller-Hinton broth.

Turning to `CCO[C@H]1[C@H](NC(=O)c2ccco2)c2ccccc2C12CCN(C(=O)c1cc3ncccn3n1)CC2`, the “bacterial growth OD600” value (polymyxin B 0.75 µg/mL) turned out to be 0.847.

For the compound `CC(NC(=O)c1coc(CN2CCN(c3ccccc3F)CC2)n1)c1cnn(C)c1` (configuration not stated), the “bacterial growth OD600” value (polymyxin B 1 µg/mL) came to 0.934.

With `COCC(=O)Nc1cc(C(=O)N(C)CCc2cnn(C)c2)cc2ncn(CCc3ccccc3)c12`, the “bacterial growth OD600” value (polymyxin B 0.75 µg/mL) amounted to 0.785. Regarding `COCCN(C)C(=O)c1cc(NC(=O)c2ccccc2)cc2ncn(C3CCCC3)c12`, the “bacterial growth OD600” value (polymyxin B 0.75 µg/mL) came out at 0.826. On to `CCOC(=O)C1(CCCc2ccccc2)CCCN(C(=O)COC)C1` (configuration not stated), for which the “bacterial growth OD600” value (polymyxin B 1 µg/mL) was 0.911. Take `O=C(NC1CC(=O)N(Cc2cccc3ccccc23)C1)C1CCCC1` (configuration not stated): under “polymyxin B 1 µg/mL”, the “bacterial growth OD600” value was 0.91.

As for `CN(Cc1ccccn1)C(=O)c1cc(COc2cccc(C(F)(F)F)c2)[nH]n1`, where the note is “polymyxin B 1 µg/mL”, the “bacterial growth OD600” value is 1.14. `Clc1ccccc1CC1CN(c2cnccn2)CCO1` (configuration not stated): the “bacterial growth OD600” value (polymyxin B 0.75 µg/mL) is 0.744. Take `O=C(C1CC=CCC1)N1CCc2[nH]nc(-c3ccc(C(F)(F)F)cc3)c2C1` (configuration not stated): the “bacterial growth OD600” value (polymyxin B 0.75 µg/mL) is 0.695. On to `c1cncc(CN(CCN2CCCCC2)CC2CCCN(C3CCCC3)C2)c1` (configuration not stated), for which the “bacterial growth OD600” value (polymyxin B 1 µg/mL) worked out at 0.895. As for `Cc1cc(CN(C)c2ccc(C(=O)NCCC3CCCCN3C)cn2)on1` (configuration not stated), the “bacterial growth OD600” value (polymyxin B 1 µg/mL) was found to be 0.994. For `CC(C)c1ccc(NC2CCCN(C(=O)c3ccc(Cn4cnnn4)cc3)C2)cc1` (configuration not stated), where the note is “polymyxin B 1 µg/mL”, the “bacterial growth OD600” value was found to be 0.918. Still for that read-out and setting: the value for `COc1ccc(C(CC(=O)N(C)Cc2nc(C)cs2)c2ccccc2)cc1` (configuration not stated) was 0.688; that for `COc1ccc(OC2CCN(C(C)=O)CC2)c(C(=O)NCc2cc3ccccc3[nH]2)c1` was 1.08. Consider `CCOc1cc(CN2Cc3cc(Cl)ccc3OC(C)C2)ccc1O` (configuration not stated), for which the “bacterial growth OD600” value (polymyxin B 0.75 µg/mL) came out at 0.674.

As for `COc1cc(CNC2COc3ccccc3C2)cc(OC)c1OC` (configuration not stated), for the setting “polymyxin B 1 µg/mL”, the “bacterial growth OD600” value turned out to be 1.04. As to `Cn1ccnc1CN1C[C@H]2OC(=O)N(CCc3cccc(Cl)c3)[C@H]2C1`, the “bacterial growth OD600” value (polymyxin B 1 µg/mL) was found to be 0.972. Same read-out and setting: under `COc1ccc(CCN2CCC(CN(C)C(=O)c3ccc(N(C)C)cc3)CC2)cc1` stands 1.23. The same measure, in the same setting: under `Cc1ccccc1N1CCN(C2CCCN(C/C=C/c3ccc(F)cc3)C2)CC1` (configuration not stated) stands 1.09. Turning to `CCCN1CCC(N2C[C@H]3OC(=O)N(CCc4cccc(Cl)c4)[C@H]3C2)CC1`, the “bacterial growth OD600” value (polymyxin B 1 µg/mL) stood at 0.892. Regarding `O=C(CSc1ccccc1)Nc1cnn(CC(=O)NC(CCn2ccnc2)c2ccccc2)c1` (configuration not stated), the “bacterial growth OD600” value (polymyxin B 0.75 µg/mL) was 0.856. Turning to `NC(=O)C1(C(=O)NC2CCCN(CCc3ccccc3)C2)CC1` (configuration not stated), the “bacterial growth OD600” value (polymyxin B 1 µg/mL) was determined as 0.949. Turning to `Cc1occc1C(=O)NC1CCCN(C2CCCCCC2)C1` (configuration not stated), the “bacterial growth OD600” value (polymyxin B 1 µg/mL) amounted to 0.914.

For the compound `O=C(COc1ccccc1)Nc1ccc(N2CCC(NC(c3ccccn3)C(F)(F)F)CC2)cc1` (configuration not stated), the “bacterial growth OD600” value (polymyxin B 0.75 µg/mL) was 0.557.

For `CCNC(=O)c1cn(CCc2ccccc2)cc(C(=O)N(C)Cc2cccs2)c1=O`, the “bacterial growth OD600” value (polymyxin B 0.75 µg/mL) was determined as 0.811. Turning to `C[C@@H]1CN(C2(C(=O)NCCc3cscn3)Cc3ccccc3C2)C[C@H](C)O1`, the “bacterial growth OD600” value (polymyxin B 1 µg/mL) was determined as 1.07. With `CN(C)CCN1C(=O)CC(CC(=O)N2CCN(Cc3ccccn3)CC2)(c2ccccc2Cl)C1=O` (configuration not stated), the “bacterial growth OD600” value (polymyxin B 0.75 µg/mL) turned out to be 0.64.

With `O=S(=O)(NCc1cccnc1Oc1ccccc1F)c1cccnc1`, where the note is “polymyxin B 1 µg/mL”, the “bacterial growth OD600” value worked out at 0.842. `COc1ccc(OC2CCN(C3CCCC3)CC2)c(C(=O)NCC2CCOCC2)c1`: the “bacterial growth OD600” value (polymyxin B 1 µg/mL) worked out at 1.27. As for `c1cncc(CN2CCC(C3CCN(c4cnc5ccccc5n4)C3)CC2)c1` (configuration not stated), the “bacterial growth OD600” value (polymyxin B 0.75 µg/mL) was 0.884. On the same count and under the same terms, the value for `COc1cccc(OCc2cc(C(=O)NCc3cnn(C)c3C)n[nH]2)c1` was 0.77; that for `Cc1ccccc1C(CC(=O)N(C)CCn1ccnc1)c1ccccc1` (configuration not stated) was 0.55.
